# According to the supplement of paper PMC8728848:
# This is one part of the list.
# What was measured:
# Test in all cases: glycan array binding signal (z-score within array); higher = stronger binding
# Details in all cases: glycan notation: IUPAC condensed, linker removed; mutation: H213R,G256S
# [1] = target: Fuc(a1-2)Gal
# Procedure, shortened: (§1)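 Negative Z-scores can be read as non-binding. The Z-score is calculated within each array and then averaged across arrays of one protein sequence at different concentrations or buffers and across linkers. Arrays, 3228 in all, were curated from the Consortium for Functional Glycomics database and kept only where the protein sequence was available.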
# [2] = target: Fuc(a1-2)Gal(b1-3)GalNAc
# Procedure, shortened: as §1
# [3] = target: Fuc(a1-2)Gal(b1-3)GalNAc(b1-3)Gal
# Procedure, shortened: as §1
# [4] = target: Fuc(a1-2)Gal(b1-3)GalNAc(b1-3)Gal(a1-4)Gal(b1-4)Glc
# Procedure, shortened: as §1
# [5] = target: Fuc(a1-2)Gal(b1-3)GalNAc(b1-4)[Neu5Ac(a2-3)]Gal(b1-4)Glc
# Procedure, shortened: as §1
# [6] = target: Fuc(a1-2)Gal(b1-3)GlcNAc
# Procedure, shortened: as §1
# [7] = target: Fuc(a1-2)Gal(b1-3)GlcNAc(b1-3)Gal(b1-4)Glc
# Procedure, shortened: as §1
# [8] = target: Fuc(a1-2)Gal(b1-3)[Fuc(a1-4)]GlcNAc
# Procedure, shortened: as §1
# [9] = target: Fuc(a1-2)Gal(b1-4)Glc
# Procedure, shortened: as §1
# [10] = target: Fuc(a1-2)Gal(b1-4)Glc6S
# Procedure, shortened: as §1
# [11] = target: Fuc(a1-2)Gal(b1-4)GlcNAc
# Procedure, shortened: as §1
# [12] = target: Fuc(a1-2)Gal(b1-4)GlcNAc(b1-3)Gal(b1-4)GlcNAc
# Procedure, shortened: as §1
# [13] = target: Fuc(a1-2)Gal(b1-4)GlcNAc(b1-3)Gal(b1-4)GlcNAc(b1-3)Gal(b1-4)GlcNAc
# Procedure, shortened: as §1
# [14] = target: Fuc(a1-2)Gal(b1-4)GlcNAc6S
# Procedure, shortened: as §1
# [15] = target: Fuc(a1-2)Gal(b1-4)[Fuc(a1-3)]GlcNAc
# Procedure, shortened: as §1
# [16] = target: Fuc(a1-2)Gal(b1-4)[Fuc(a1-3)]GlcNAc(b1-3)Gal(b1-4)[Fuc(a1-3)]GlcNAc
# Procedure, shortened: as §1
# [17] = target: Fuc(a1-2)Gal(b1-4)[Fuc(a1-3)]GlcNAc(b1-3)Gal(b1-4)[Fuc(a1-3)]GlcNAc(b1-3)Gal(b1-4)[Fuc(a1-3)]GlcNAc
# Procedure, shortened: as §1
# [18] = target: Fuc(a1-2)Gal6S(b1-4)Glc
# Procedure, shortened: as §1
# [19] = target: Fuc(a1-2)Gal6S(b1-4)Glc6S
# Procedure, shortened: as §1
# [20] = target: Fuc(a1-2)Gal6S(b1-4)GlcNAc
# Procedure, shortened: as §1
# [21] = target: Fuc(a1-2)[Gal(a1-3)]Gal
# Procedure, shortened: as §1
# [22] = target: Fuc(a1-2)[Gal(a1-3)]Gal(b1-3)GlcNAc
# Procedure, shortened: as §1
# [23] = target: Fuc(a1-2)[Gal(a1-3)]Gal(b1-4)Glc
# Procedure, shortened: as §1
# [24] = target: Fuc(a1-2)[Gal(a1-3)]Gal(b1-4)GlcNAc
# Procedure, shortened: as §1
# [25] = target: Fuc(a1-2)[Gal(a1-3)]Gal(b1-4)[Fuc(a1-3)]GlcNAc
# Procedure, shortened: as §1
# [26] = target: Fuc(a1-2)[Gal(a1-4)]Gal(b1-4)GlcNAc
# Procedure, shortened: as §1
# [27] = target: Fuc(a1-2)[GalNAc(a1-3)]Gal
# Procedure, shortened: as §1
# [28] = target: Fuc(a1-2)[GalNAc(a1-3)]Gal(b1-3)GlcNAc
# Procedure, shortened: as §1
# [29] = target: Fuc(a1-2)[GalNAc(a1-3)]Gal(b1-4)Glc
# Procedure, shortened: as §1
# [30] = target: Fuc(a1-2)[GalNAc(a1-3)]Gal(b1-4)GlcNAc
# Procedure, shortened: as §1
# [31] = target: Fuc(a1-2)[GalNAc(a1-3)]Gal(b1-4)[Fuc(a1-3)]GlcNAc
# Procedure, shortened: as §1
# [32] = target: Fuc(a1-2)[GalNAc(a1-4)]Gal(b1-4)GlcNAc
# Procedure, shortened: as §1
# [33] = target: Fuc(a1-2)[GalNAc(b1-3)]Gal
# Procedure, shortened: as §1
# [34] = target: Fuc(a1-3)GlcNAc
# Procedure, shortened: as §1
# [35] = target: Fuc(a1-3)[Gal(b1-4)]Glc6S
# Procedure, shortened: as §1
# [36] = target: Fuc(a1-3)[Gal(b1-4)]GlcNAc
# Procedure, shortened: as §1
# [37] = target: Fuc(a1-3)[Gal(b1-4)]GlcNAc(b1-3)Gal(b1-3)[Fuc(a1-4)]GlcNAc
# Procedure, shortened: as §1
# [38] = target: Fuc(a1-3)[Gal(b1-4)]GlcNAc(b1-4)Gal(b1-4)[Fuc(a1-3)]GlcNAc
# Procedure, shortened: as §1
# [39] = target: Fuc(a1-3)[Gal(b1-4)]GlcNAc(b1-4)Gal(b1-4)[Fuc(a1-3)]GlcNAc(b1-4)Gal(b1-4)[Fuc(a1-3)]GlcNAc
# Procedure, shortened: as §1
# [40] = target: Fuc(a1-3)[Gal(b1-4)]GlcNAc6S
# Procedure, shortened: as §1
# [41] = target: Fuc(a1-3)[Gal3S(b1-4)]Glc6S
# Procedure, shortened: as §1
# [42] = target: Fuc(a1-3)[Gal3S(b1-4)]GlcNAc
# Procedure, shortened: as §1
# [43] = target: Fuc(a1-3)[Gal3S(b1-4)]GlcNAc6S
# Procedure, shortened: as §1
# [44] = target: Fuc(a1-3)[GalNAc(b1-4)]GlcNAc
# Procedure, shortened: as §1
# [45] = target: Fuc(a1-4)GlcNAc
# Procedure, shortened: as §1
binder,measurement,setting,value
CD23 (Homo sapiens) (protein) MELQVSSGFVCNTCPEKWINFQRKCYYFGKGTKQWVHARYACDDMEGQLVSIHSPEEQDFLTKRASHTGSWIGLRNLDLKGEFIWVDGSHVDYSNWAPGEPTSRSQSEDCVMMRGSGRWNDAFCDRKLGAWVCDRLATCTPPASEGSAESMGPDSRPDPDGRLPTPSAPLHS,glycan array binding signal (z-score),[1],0.42
same,glycan array binding signal (z-score),[2],0.764
same,glycan array binding signal (z-score),[3],-0.437
same,glycan array binding signal (z-score),[4],-0.206
same,glycan array binding signal (z-score),[5],-0.202
same,glycan array binding signal (z-score),[6],-0.257
same,glycan array binding signal (z-score),[7],-0.482
same,glycan array binding signal (z-score),[8],-0.42
same,glycan array binding signal (z-score),[9],-0.561
same,glycan array binding signal (z-score),[10],0.623
same,glycan array binding signal (z-score),[11],0.204
same,glycan array binding signal (z-score),[12],-0.865
same,glycan array binding signal (z-score),[13],-0.359
same,glycan array binding signal (z-score),[14],-0.362
same,glycan array binding signal (z-score),[15],-0.164
same,glycan array binding signal (z-score),[16],-0.367
same,glycan array binding signal (z-score),[17],1.02
same,glycan array binding signal (z-score),[18],-0.232
same,glycan array binding signal (z-score),[19],-0.001
same,glycan array binding signal (z-score),[20],0.219
same,glycan array binding signal (z-score),[21],0.317
same,glycan array binding signal (z-score),[22],-0.318
same,glycan array binding signal (z-score),[23],-0.482
same,glycan array binding signal (z-score),[24],-0.196
same,glycan array binding signal (z-score),[25],-0.199
same,glycan array binding signal (z-score),[26],0.063
same,glycan array binding signal (z-score),[27],-0.194
same,glycan array binding signal (z-score),[28],0.022
same,glycan array binding signal (z-score),[29],0.041
same,glycan array binding signal (z-score),[30],0.26
same,glycan array binding signal (z-score),[31],-0.361
same,glycan array binding signal (z-score),[32],0.347
same,glycan array binding signal (z-score),[33],0.044
same,glycan array binding signal (z-score),[34],-0.166
same,glycan array binding signal (z-score),[35],-0.224
same,glycan array binding signal (z-score),[36],-0.056
same,glycan array binding signal (z-score),[37],0.229
same,glycan array binding signal (z-score),[38],0.007
same,glycan array binding signal (z-score),[39],0.085
same,glycan array binding signal (z-score),[40],0.398
same,glycan array binding signal (z-score),[41],0.366
same,glycan array binding signal (z-score),[42],-0.325
same,glycan array binding signal (z-score),[43],0.422
same,glycan array binding signal (z-score),[44],-0.572
same,glycan array binding signal (z-score),[45],-0.237

# A second format for some results above:
binder	measurement	setting	value
CD23 (Homo sapiens) (protein) MELQVSSGFVCNTCPEKWINFQRKCYYFGKGTKQWVHARYACDDMEGQLVSIHSPEEQDFLTKRASHTGSWIGLRNLDLKGEFIWVDGSHVDYSNWAPGEPTSRSQSEDCVMMRGSGRWNDAFCDRKLGAWVCDRLATCTPPASEGSAESMGPDSRPDPDGRLPTPSAPLHS	glycan array binding signal (z-score)	[7]	-0.482
same	glycan array binding signal (z-score)	[8]	-0.42
